These are yes or no findings as the source states them, for the method shown. Some results given as binding are weak or reduced against the parent protein; the word gives no strength. Tags and fused reporters may be left off the sequences shown.
T1: His-LXRα/FLAG-RXRα heterodimer (ligand binding domains of human LXRα and human RXRα) (human) (UniProt Q13133)
T1 sequence 1: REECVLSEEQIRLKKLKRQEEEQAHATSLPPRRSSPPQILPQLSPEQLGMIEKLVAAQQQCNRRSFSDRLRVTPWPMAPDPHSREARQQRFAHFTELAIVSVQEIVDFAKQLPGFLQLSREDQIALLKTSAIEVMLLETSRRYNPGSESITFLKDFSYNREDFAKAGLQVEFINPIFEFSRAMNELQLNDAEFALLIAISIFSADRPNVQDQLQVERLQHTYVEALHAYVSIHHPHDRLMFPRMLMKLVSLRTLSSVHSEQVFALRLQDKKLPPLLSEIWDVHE
T1 sequence 2: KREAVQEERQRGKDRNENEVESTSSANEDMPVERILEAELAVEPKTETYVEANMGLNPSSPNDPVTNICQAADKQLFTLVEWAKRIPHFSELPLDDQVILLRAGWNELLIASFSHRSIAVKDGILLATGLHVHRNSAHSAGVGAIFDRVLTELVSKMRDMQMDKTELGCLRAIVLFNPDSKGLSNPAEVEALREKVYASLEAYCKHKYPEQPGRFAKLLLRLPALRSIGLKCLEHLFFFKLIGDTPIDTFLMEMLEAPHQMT


These binders were tested against T1, His-LXRα/FLAG-RXRα heterodimer (ligand binding domains of human LXRα and human RXRα) (human) (assay: FRET, Example 4).

Row | binding | Binder
1 | binds | HSKASWAEFSILRELLAQDVLCD (amino acid of the N-terminal biotinylated (same method as Example 2)) [PERC NRB2 peptide … (aa 332-354)]
2 | binds | KNPTSCSRRFYQLTKLLDSVQPIAR (amino acid of the N-terminal biotinylated (same method as Example 2)) [PNRC peptide … (aa 848-872)]
3 | binds | GHGEDFSKVSQNPILTSLLQITGNG (amino acid of the N-terminal biotinylated (same method as Example 2)) [TRAP220 peptide … (aa 590-614)]

— patent publication US20090098570A1 (Daiichi Sankyo, published 2009)
